Tested on: HeLa cells
Assay: MTS cell viability assay in HeLa
Type: cell-based
Procedure: We investigated the effect of nine cATC derivatives (6b/6d/6e/6f/6i/6j/6k/6l/6n) on cell viability in cancer cell-line HeLa and transformed normal cell-line HEK293. We treated cells with the varying concentrations of the compounds ranging from 10 nM to 50 μM for 18 h (optimized).
MTS assay (CellTiter 96® AQueous One Solution Cell Proliferation Assay (Promega, USA) was used to determine the cell viability. HeLa and HEK293 cells (20,000 cells in each well) were plated in 96 well plate and treated with 6e, 6j, and 6n varying concentrations of the compounds ranging from 10 nM to 50 μM for 18 h. The assay was carried out according to the manufacturer’s instructions. Finally, the plate was read in Varioskan™ LUX multimode microplate reader (Thermo Fisher Scientific) at 490 nm.
Cell scavenging activity was calculated using the following formula:
OD(490nm) (control) – OD(490nm) (Test)/OD(490nm) (control) × 100%
Cell Viability of the cell was calculated using the following formula: […]

## Cc1cccc(C2C(C(=O)[O-])N(CCc3ccccc3)c3ccccc[c+]3N2Cc2ccccc2)c1 (stereo not shown) [Compound 6e]
  concentration at which fluorescence signal became visible inside cells: 12 µM

— publication PMC9814901, “One-pot synthesis of cyclic-aminotropiminium carboxylate derivatives with DNA binding and anticancer properties” (Communications Chemistry, 2022)
